Some entries share one result that the patent states for a list of compounds.
Legend:
[1] = target: T1, NEP (EC.3.4.24.11) from human kidney (Homo sapiens, UniProt P08473); test: Assay 1: NEP inhibition (methods of EP1097719-A1); format: biochemical; conditions: as determined by Assay 1, read-out: IC50 against NEP
T1 construct: determined using NEP (EC.3.4.24.11) from human kidney; from tissue; host or cells: human kidney

By UniProt entry, the sequences of proteins in these tests, tags left out. Where a name states a change or a piece, a line headed by the entry shows the natural chain unless it says otherwise. Residues count along the entry.
UniProt P08473: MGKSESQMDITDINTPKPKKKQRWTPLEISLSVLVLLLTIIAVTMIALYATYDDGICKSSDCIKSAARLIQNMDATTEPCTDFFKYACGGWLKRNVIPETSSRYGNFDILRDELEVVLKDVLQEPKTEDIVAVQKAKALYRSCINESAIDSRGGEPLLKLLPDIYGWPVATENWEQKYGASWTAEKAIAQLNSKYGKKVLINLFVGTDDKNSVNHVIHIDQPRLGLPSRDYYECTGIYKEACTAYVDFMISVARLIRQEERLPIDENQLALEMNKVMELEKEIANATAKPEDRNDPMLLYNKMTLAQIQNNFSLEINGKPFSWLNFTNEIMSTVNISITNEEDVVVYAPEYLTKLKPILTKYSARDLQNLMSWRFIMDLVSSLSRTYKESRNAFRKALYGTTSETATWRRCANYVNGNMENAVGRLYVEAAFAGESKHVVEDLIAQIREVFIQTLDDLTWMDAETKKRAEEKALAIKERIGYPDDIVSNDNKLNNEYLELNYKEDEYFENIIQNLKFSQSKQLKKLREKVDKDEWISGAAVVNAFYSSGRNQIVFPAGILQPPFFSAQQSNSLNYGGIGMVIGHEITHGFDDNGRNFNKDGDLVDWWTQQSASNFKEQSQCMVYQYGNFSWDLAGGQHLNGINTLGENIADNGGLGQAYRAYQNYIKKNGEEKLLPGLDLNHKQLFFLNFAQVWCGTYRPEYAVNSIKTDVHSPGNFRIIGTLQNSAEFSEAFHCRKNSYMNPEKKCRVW
UniProt P12821, 30-1306, species assumed: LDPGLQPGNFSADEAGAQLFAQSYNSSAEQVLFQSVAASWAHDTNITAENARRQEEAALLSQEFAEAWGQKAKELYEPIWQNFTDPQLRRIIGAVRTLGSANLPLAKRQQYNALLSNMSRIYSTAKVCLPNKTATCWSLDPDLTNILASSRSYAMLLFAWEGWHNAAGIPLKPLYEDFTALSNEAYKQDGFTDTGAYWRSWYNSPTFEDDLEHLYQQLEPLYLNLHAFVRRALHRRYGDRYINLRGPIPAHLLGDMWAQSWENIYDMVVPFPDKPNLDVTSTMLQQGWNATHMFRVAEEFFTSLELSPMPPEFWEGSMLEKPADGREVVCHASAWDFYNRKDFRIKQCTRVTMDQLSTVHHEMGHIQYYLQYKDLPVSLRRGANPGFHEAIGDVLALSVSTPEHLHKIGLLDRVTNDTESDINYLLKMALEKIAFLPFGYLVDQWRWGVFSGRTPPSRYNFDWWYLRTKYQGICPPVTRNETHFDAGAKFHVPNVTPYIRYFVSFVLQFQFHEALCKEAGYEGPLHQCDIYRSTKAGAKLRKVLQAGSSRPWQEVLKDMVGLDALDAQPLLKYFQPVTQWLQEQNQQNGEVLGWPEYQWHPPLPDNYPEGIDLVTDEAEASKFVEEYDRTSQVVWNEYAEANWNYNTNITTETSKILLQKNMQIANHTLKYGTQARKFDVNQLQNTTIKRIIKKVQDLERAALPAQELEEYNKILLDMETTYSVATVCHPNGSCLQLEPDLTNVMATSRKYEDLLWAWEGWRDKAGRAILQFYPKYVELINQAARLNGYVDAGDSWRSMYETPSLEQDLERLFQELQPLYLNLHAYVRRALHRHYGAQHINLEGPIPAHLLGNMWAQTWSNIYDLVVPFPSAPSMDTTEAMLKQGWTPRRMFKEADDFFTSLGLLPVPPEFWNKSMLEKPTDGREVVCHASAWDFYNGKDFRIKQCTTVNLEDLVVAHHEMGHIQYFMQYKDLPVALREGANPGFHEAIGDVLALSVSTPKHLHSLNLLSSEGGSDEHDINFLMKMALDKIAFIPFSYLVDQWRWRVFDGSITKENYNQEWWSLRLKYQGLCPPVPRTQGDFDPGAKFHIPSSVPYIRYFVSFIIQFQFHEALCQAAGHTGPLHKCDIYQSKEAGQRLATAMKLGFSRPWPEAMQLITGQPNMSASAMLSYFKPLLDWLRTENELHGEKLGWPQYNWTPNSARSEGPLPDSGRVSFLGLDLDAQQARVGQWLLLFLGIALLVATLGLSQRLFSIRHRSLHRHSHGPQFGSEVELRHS

ACE = ACE (Homo sapiens, UniProt P12821); test: ACE inhibition, for selectivity over ACE; format: biochemical; conditions: NEP versus ACE; stated with the Assay 2 results

Structure (SMILES)	IC50 [1] [nM]	selectivity over ACE (ACE)
COCC[C@H](CC1(C(=O)N[C@@H](Cc2nc(C)c(-c3ccccc3)o2)C(=O)O)CCCC1)C(=O)O [Example 25, (2S)-2-{1-[(1S)-1-Carboxy-2-(4-methyl-5-phenyl-oxazol-2-yl)-ethoxycarbamoyl]-cyclopentylmethyl}-4-methoxy-butyric Acid]	≤ 10	–
COCC[C@H](CC1(C(=O)N[C@@H](Cc2ncc(-c3ccc(F)cc3)o2)C(=O)O)CCCC1)C(=O)O [Example 26]	≤ 10	greater than 100 fold
CCC[C@H](CC1(C(=O)N[C@H](CC(=O)O)Cc2ncc(-c3ccccc3)o2)CCCC1)C(=O)O [Example 27, (2R)-2-{1-[(1S)-1-Carboxymethyl-2-(5-phenyl-oxazol-2-yl)-ethylcarbamoyl]-cyclopentylmethyl}-pentanoic Acid]	≤ 10	–
CCC[C@H](CC1(C(=O)N[C@@H](Cc2ncc(-c3ccccc3)o2)C(=O)O)CCCC1)C(=O)O [Example 29, (2R)-2-{1-[(1S)-1-Carboxy-2-(5-phenyl-oxazol-2-yl)-ethylcarbamoyl]-cyclopentylmethyl}-pentanoic Acid]	≤ 10	greater than 100 fold
COCC[C@H](CC1(C(=O)N[C@@H](Cc2ncc(-c3ccc(Cl)cc3)o2)C(=O)O)CCCC1)C(=O)O [Example 30, (2S)-2-(1-{(1S)-1-Carboxy-2-[5-(4-chloro-phenyl)-oxazol-2-yl]-ethylcarbamoyl}-cyclopentylmethyl)-4-methoxy-butyric Acid]	≤ 10	greater than 100 fold
CCC[C@H](CC1(C(=O)N[C@@H](Cc2nc(-c3ccccc3)co2)C(=O)O)CCCC1)C(=O)O [Example 34, (2R)-2-{1-[(1S)-1-Carboxy-2-(4-phenyl-oxazol-2-yl)-ethylcarbamoyl]-cyclopentylmethyl}-pentanoic Acid]	≤ 10	–
COCC[C@H](CC1(C(=O)N[C@@H](Cc2noc(-c3ccccc3)n2)C(=O)O)CCCC1)C(=O)O [Example 35, (2S)-2-{1-[(1S)-1-Carboxy-2-(5-phenyl-[1.2.4]oxadiazol-3-yl)-ethylcarbamoyl]-cyclopentylmethyl}-4-methoxy-butyric Acid]	≤ 10	–
CCC[C@H](CC1(C(=O)N[C@@H](Cn2cc(-c3ccccc3)cn2)C(=O)O)CCCC1)C(=O)O [Example 36, (2R)-2-{1-[(1S)-1-carboxy-2-(4-phenyl-pyrazol-1-yl)-ethylcarbamoyl]-cyclopentylmethyl}-pentanoic Acid]	≤ 10	–
COCC[C@H](CC1(C(=O)N[C@@H](Cc2nnc(-c3ccccc3)o2)C(=O)O)CCCC1)C(=O)O [Example 39, (2S)-2-{1-[(1S)-1-Carboxy-2-(5-phenyl-[1.3.4]oxadiazol-2-yl)-ethylcarbamoyl]-cyclopentylmethyl}-4-methoxy-butyric Acid]	≤ 10	–
COCC[C@H](CC1(C(=O)N[C@@H](Cc2ncc(-c3ccccc3)o2)C(=O)O)CCCC1)C(=O)O [Example 40, (2S)-2-{1-[(1S)-1-Carboxy-2-(5-phenyl-oxazol-2-yl)-ethylcarbamoyl]-cyclopentylmethyl}-4-methoxy-butyric Acid]	≤ 10	greater than 100 fold

Reference: patent US20040138274A1, “Novel pharmaceuticals” (priority 2002, published 2004)
